Laboratory results published in the supplement of paper PMC10735217.
Counter-ions that a name gives are not always drawn. The list shows a part of the results. This data set is noisy: repeats of one test often differ as much as different tests do.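 In a drug-repurposing library screen, luminescence reads luciferase driven by eight TEAD-binding elements, stably integrated into human kidney-derived cells. Compounds scoring over five robust Z scores above the plate mean are called hits.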

Tested on: HEK293A TEAD-LUC reporter
Test: TEAD-luciferase reporter activity (YAP activation), robust Z score vs plate; higher = stronger YAP/TEAD activation
Details: 24 h

| SMILES | TEAD-luciferase reporter activity (compound concentration: 200 nM) | TEAD-luciferase reporter activity (compound concentration: 10 uM) | TEAD-luciferase reporter activity (compound concentration: 2 uM) |
| --- | --- | --- | --- |
| O=C1Nc2ccccc2CN(CC2CCCCC2)C12CCNCC2 | inactive: -1.68 | inactive: -0.528 | – |
| CN(c1ccc(Cl)cc1)c1cc[n+](Cc2ccc(-c3ccc(C[n+]4ccc(N(C)c5ccc(Cl)cc5)c5ccccc54)cc3)cc2)c2ccccc12 | inactive: -0.702 | inactive: -1.07 | inactive: -1.14 |
| CCCCCCCCCCCCCCOc1ccc(C(=O)O)o1 | inactive: -2.04 | inactive: 0.259 | inactive: -0.605 |
| CC1N(CC(=O)c2ccccc2)CCCC1(C)c1ccc(O)cc1 (configuration not stated) | inactive: -0.227 | inactive: -1.01 | inactive: 0.259 |
| N=C(N)NCCC[C@@H](NC(=O)C1CCCN1C(=O)[C@@H]1CSSCCC(=O)N[C@@H](Cc2ccc(O)cc2)C(=O)N[C@@H](Cc2ccccc2)C(=O)N[C@@H](CCC(N)=O)C(=O)N[C@@H](CC(N)=O)C(=O)N1)C(=O)NCC(N)=O (some centres not stated) [desmopressin] | inactive: -1.74 | inactive: 1.19 | inactive: 0.285 |
| CCOC(=O)C1=C(C)NC(C)=C(C(=O)OCC)C1c1ccccc1/C=C/C(=O)OC(C)(C)C [lacidipine] | inactive: -1.01 | inactive: -2.49 | inactive: -1.82 |
| O=C(OC12CC3CC(CC(C3)C1)C2)c1ccc(NCc2cc(O)ccc2O)cc1 | inactive: -0.826 | active: 5.46 | inactive: -0.487 |
| O=C1c2ccccc2S(=O)(=O)N1CCCCN1CCN(c2cc(Cl)cc3c2OCCO3)CC1 | inactive: 1.15 | inactive: 0.319 | inactive: -0.609 |
| O=P(O)(O)C(O)(CCN1CCCC1)P(=O)(O)O | inactive: -0.505 | inactive: -0.208 | inactive: -1.14 |
| CCN[C@H]1CN(CCOC)S(=O)(=O)c2sc(S(N)(=O)=O)cc21 | inactive: -0.14 | inactive: -2.06 | inactive: -0.442 |
| CC(=O)c1ccc(C)cc1NC(C(N)=O)c1c(Cl)cccc1Cl (configuration not stated) [Loviride] | inactive: -0.938 | inactive: 3.4 | inactive: -0.732 |
| CCc1nc(C(N)=O)c(Nc2ccc(N3CCC(N4CCN(C)CC4)CC3)c(OC)c2)nc1NC1CCOCC1 [Gilteritinib] | inactive: -0.886 | inactive: -1.32 | inactive: -0.00382 |
| C=CC(=O)Nc1cccc(Nc2nc(Nc3ccc(N4CCN(C(C)=O)CC4)cc3OC)ncc2C(F)(F)F)c1 [Rociletinib hydrobromide] | inactive: -0.499 | inactive: 2.43 | inactive: -3.03 |
| CN(C)CCn1c(=O)c2cccc3c4c5c(ccc4n(c1=O)c23)C(=O)CCC5 | inactive: 0.13 | inactive: 2.02 | inactive: 1.67 |
| COC(=O)c1ccccc1C(=O)c1ccc(OCCN2CCCCC2)cc1 | inactive: 0.413 | inactive: -0.156 | inactive: 1.09 |
| Cc1noc(-c2ccc(-c3ccc(CC(=O)O)cc3)cc2)c1NC(=O)O[C@H](C)c1ccccc1 | inactive: -2.48 | inactive: 1.02 | inactive: -2.45 |

An excerpt from above in order of formula weight, low to high:

| SMILES | TEAD-luciferase reporter activity (compound concentration: 200 nM) | TEAD-luciferase reporter activity (compound concentration: 10 uM) | TEAD-luciferase reporter activity (compound concentration: 2 uM) |
| --- | --- | --- | --- |
| O=P(O)(O)C(O)(CCN1CCCC1)P(=O)(O)O | inactive: -0.505 | inactive: -0.208 | inactive: -1.14 |
| COC(=O)c1ccccc1C(=O)c1ccc(OCCN2CCCCC2)cc1 | inactive: 0.413 | inactive: -0.156 | inactive: 1.09 |
| C=CC(=O)Nc1cccc(Nc2nc(Nc3ccc(N4CCN(C(C)=O)CC4)cc3OC)ncc2C(F)(F)F)c1 [Rociletinib hydrobromide] | inactive: -0.499 | inactive: 2.43 | inactive: -3.03 |
